Some results were stated once for a whole list of compounds, not compound by compound.
How the values were obtained:
Format in all cases: in vivo
Sinapis arvensis = assay: Weed action postemergence; settings: three-leaf stage, dose of 1 kg of active substance or less per hectare, assessed after 3 to 4 weeks vs untreated controls
Setaria viridis = assay: Weed action preemergence; settings: dose of 1 kg of active substance or less per hectare, visual assessment after 3 to 4 weeks vs untreated controls
Stellaria media = assay: Weed action preemergence; settings: dose of 1 kg of active substance or less per hectare, visual assessment after 3 to 4 weeks vs untreated controls
Echinocloa crus-galli = assay: Action on harmful plants in rice; settings: paddy rice conditions (depth of the water: 2-3 cm); dose of 1 kg of active substance or less per hectare; visual assessment about three weeks after application
Amaranthus retroflexus = assay: Weed action postemergence; settings: three-leaf stage, dose of 1 kg of active substance or less per hectare, assessed after 3 to 4 weeks vs untreated controls
Cyperus iria = assay: Action on harmful plants in rice; settings: paddy rice conditions (depth of the water: 2-3 cm); dose of 1 kg of active substance or less per hectare; visual assessment about three weeks after application

CS(=O)(=O)c1ccc(C(=O)C2C(=O)CCCC2=O)c(Cl)c1COc1ccccc1 [Example 2, 2-(2-chloro-4-methylsulfonyl-3-phenoxymethylbenzoyl)cyclohexane-1,3-dione]
action against Sinapis arvensis (Sinapis arvensis): at least 90%
action against Setaria viridis (Setaria viridis): at least 90%
action against Stellaria media (Stellaria media): at least 90%
action against Echinocloa crus-galli (Echinocloa crus-galli): at least 80%
action against Amaranthus retroflexus (Amaranthus retroflexus): at least 80%
action against Cyperus iria (Cyperus iria): at least 80%

— patent publication US6376429B1, “Benzoylcyclohexanediones, process for their preparation and their use as herbicides and plant growth regulators” (Hoechst Schering AgrEvo GmbH, priority 1998, dated 2002)
